Data taken from ChEMBL document CHEMBL3108738, “The chemical and biological potential of C ring modified triterpenoids” (Eur J Med Chem, 2014).

System: A549
Assay: Cytotoxicity against human A549 cells after 96 hrs by SRB assay
Format: functional, cell-based
Conditions: A549, 96 h

CN[C@@H]1C[C@H]2O[C@@](C)([C@@H]1OC)n1c3ccccc3c3c4c(c5c6ccccc6n2c5c31)C(=O)NC4 [STAUROSPORINE]
IC50: 600 nM
